The target of this experiment is T1, wildtype DNAJC17, FLAG-tagged (human) (UniProt Q9NVM6).
T1 sequence: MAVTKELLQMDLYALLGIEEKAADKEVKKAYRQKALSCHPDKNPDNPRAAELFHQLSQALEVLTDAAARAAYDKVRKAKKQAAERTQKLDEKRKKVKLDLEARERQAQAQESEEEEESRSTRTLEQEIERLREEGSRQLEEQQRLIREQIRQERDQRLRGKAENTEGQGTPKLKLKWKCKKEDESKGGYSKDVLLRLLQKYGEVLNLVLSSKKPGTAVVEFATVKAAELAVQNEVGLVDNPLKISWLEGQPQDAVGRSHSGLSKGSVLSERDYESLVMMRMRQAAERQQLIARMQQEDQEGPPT
In words: co-IP; magnetic anti-FLAG M2 beads with whole cell lysates in 50 mM TrisHCl pH 7.4, 150 mM NaCl, 0.05% NP-40, protease inhibitor, RNAse inhibitor; 90 min at 4 °C; washes with 300 mM and 150 mM NaCl; eluate analysed by SDS-PAGE.

Chains of the proteins cited; added tags and fusions are not shown.
UniProt O75643: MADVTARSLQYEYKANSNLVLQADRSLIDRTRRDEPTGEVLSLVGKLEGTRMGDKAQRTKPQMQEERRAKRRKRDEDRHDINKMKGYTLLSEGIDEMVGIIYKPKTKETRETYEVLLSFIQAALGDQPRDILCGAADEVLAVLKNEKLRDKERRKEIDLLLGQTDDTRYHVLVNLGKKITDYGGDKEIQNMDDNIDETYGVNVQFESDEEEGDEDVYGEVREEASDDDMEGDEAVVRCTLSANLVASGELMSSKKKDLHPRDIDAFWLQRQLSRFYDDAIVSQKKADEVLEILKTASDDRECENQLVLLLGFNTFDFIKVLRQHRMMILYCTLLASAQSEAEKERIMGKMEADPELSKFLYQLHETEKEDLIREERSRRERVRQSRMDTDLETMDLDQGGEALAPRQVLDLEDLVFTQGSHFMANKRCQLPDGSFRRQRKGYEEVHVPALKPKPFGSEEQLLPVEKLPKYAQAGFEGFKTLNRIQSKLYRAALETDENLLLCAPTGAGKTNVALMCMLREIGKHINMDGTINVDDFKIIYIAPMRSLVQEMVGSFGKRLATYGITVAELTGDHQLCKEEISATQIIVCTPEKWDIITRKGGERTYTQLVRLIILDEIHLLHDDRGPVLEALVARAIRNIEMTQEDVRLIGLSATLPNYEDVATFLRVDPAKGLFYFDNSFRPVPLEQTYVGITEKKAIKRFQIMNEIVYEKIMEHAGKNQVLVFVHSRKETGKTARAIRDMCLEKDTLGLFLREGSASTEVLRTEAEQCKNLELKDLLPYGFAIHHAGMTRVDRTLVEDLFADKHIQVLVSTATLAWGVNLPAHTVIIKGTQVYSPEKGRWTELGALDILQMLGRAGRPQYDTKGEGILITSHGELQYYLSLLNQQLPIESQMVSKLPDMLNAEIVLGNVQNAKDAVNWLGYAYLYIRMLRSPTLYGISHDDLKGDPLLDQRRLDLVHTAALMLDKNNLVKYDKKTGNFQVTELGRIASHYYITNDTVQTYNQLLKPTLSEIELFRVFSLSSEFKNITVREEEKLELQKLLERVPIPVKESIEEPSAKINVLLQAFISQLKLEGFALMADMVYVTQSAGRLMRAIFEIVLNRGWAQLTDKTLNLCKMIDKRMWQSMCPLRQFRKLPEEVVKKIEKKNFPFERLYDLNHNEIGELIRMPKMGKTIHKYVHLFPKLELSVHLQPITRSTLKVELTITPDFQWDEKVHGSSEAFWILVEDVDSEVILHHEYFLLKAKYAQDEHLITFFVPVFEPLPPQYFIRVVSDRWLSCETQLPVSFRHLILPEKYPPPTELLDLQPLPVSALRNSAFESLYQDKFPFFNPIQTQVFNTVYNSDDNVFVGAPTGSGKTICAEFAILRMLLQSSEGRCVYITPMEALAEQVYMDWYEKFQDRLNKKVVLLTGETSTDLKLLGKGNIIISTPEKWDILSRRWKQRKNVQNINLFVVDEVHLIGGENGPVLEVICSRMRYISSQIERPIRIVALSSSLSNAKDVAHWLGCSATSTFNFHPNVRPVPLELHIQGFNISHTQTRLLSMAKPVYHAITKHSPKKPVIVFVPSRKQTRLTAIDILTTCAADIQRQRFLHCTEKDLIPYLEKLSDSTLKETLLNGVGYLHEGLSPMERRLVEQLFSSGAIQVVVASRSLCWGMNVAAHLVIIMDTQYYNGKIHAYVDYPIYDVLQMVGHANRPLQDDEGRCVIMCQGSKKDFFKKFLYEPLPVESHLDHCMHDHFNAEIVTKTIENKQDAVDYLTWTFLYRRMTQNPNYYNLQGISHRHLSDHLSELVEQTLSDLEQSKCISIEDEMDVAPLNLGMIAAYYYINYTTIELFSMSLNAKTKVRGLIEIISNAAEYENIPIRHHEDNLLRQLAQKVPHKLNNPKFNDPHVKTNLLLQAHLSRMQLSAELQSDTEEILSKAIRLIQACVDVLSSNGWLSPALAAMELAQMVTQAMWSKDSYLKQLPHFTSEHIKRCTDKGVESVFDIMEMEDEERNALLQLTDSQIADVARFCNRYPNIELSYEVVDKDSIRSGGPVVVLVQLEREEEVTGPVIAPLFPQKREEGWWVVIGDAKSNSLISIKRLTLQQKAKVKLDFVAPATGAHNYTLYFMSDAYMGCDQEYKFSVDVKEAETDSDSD

No constants are given. Whether binding was seen depends on the method and setting. In cells and extracts the contact can be indirect. Some entries that bind do so weakly or less than the wild type. Sequences can lack the tags named with a protein.

On to “U5 component SNRNP200 (from UniProt O75643 1-2136)”, for which the binding entry is recorded as “binds”.
